Data as given in publication PMC6620310, “A ubiquitin-like domain is required for stabilizing the N-terminal ATPase module of human SMCHD1” (Communications Biology, 2019).
No constants are given. Whether binding was seen depends on the method and setting.

Experiments:
[1] = target: SMCHD1(24–580) wild-type (human) (UniProt A6NHR9); assay: SEC; analytical gel filtration, 10/300 Superdex200 increase; 100 µl protein at 5 mg/ml in 25 mM Tris pH 7.5, 100 mM NaCl, without Mg2+/ATP; both purified
SMCHD1(110–580) (human) [2] = target: SMCHD1(110–580) (human) (UniProt A6NHR9); assay: SEC; analytical gel filtration, 10/300 Superdex200 increase; 100 µl protein at 5 mg/ml in 25 mM Tris pH 7.5, 100 mM NaCl, incubated with 5 mM Mg2+/ATP for 25 min on ice; 1 mM MgCl2 and 1 mM ATP in the running buffer; monomer to dimer; both purified
SMCHD1(110–580) (human) [3] = target: SMCHD1(110–580) (human) (UniProt A6NHR9); assay: cross-linking; glutaraldehyde (final 0.0125%), protein at 2 mg/mL in 20 mM HEPES pH 7.5, 100 mM NaCl, 10% glycerol with 5 mM MgCl2 and 5 mM ATP, 40 min at room temperature, diluted 6.25-fold; SDS-PAGE; both purified
SMCHD1(24–406) (human) [4] = target: SMCHD1(24–406) (human) (UniProt A6NHR9); assay: SEC; analytical gel filtration, 10/300 Superdex200 increase; 100 µl protein at 5 mg/ml in 25 mM Tris pH 7.5, 100 mM NaCl, incubated with 5 mM Mg2+/ATP for 25 min on ice; 1 mM MgCl2 and 1 mM ATP in the running buffer; monomer to dimer; both purified
SMCHD1(24–406) (human) [5] = target: SMCHD1(24–406) (human) (UniProt A6NHR9); assay: cross-linking; glutaraldehyde (final 0.0125%), protein at 2 mg/mL in 20 mM HEPES pH 7.5, 100 mM NaCl, 10% glycerol with 5 mM MgCl2 and 5 mM ATP, 40 min at room temperature, diluted 6.25-fold; SDS-PAGE; both purified

B1: SMCHD1(24–580) wild-type (domain or fragment, UniProt A6NHR9 24-580)
chain: GHRTVYLFDRREKESELGDRPLQVGERSDYAGFRACVCQTLGISPEEKFVITTTSRKEITCDNFDETVKDGVTLYLLQSVNQLLLTATKERIDFLPHYDTLVKSGMYEYYASEGQNPLPFALAELIDNSLSATSRNIGVRRIQIKLLFDETQGKPAVAVIDNGRGMTSKQLNNWAVYRLSKFTRQGDFESDHSGYVRPVPVPRSLNSDISYFGVGGKQAVFFVGQSARMISKPADSQDVHELVLSKEDFEKKEKNKEAIYSGYIRNRKPSDSVHITNDDERFLHHLIIEEKEKDSFTAVVITGVQPEHIQYLKNYFHLWTRQLAHIYHYYIHGPKGNEIRTSKEVEPFNNIDIEISMFEKGKVPKIVNLREIQDDMQTLYVNTAADSFEFKAHVEGDGVVEGIIRYHPFLYDRETYPDDPCFPSKLKDEDDEDDCFILEKAARGKRPIFECFWNGRLIPYTSVEDFDWCTPPKKRGLAPIECYNRISGALFTNDKFQVSTNKLTFMDLELKLKDKNTLFTRILNGQEQRMKIDREFALWLKDCHEKYDKQIKFTLFK
[1]
  binding: no binding (condition: without Mg2+/ATP)

B2: SMCHD1(110–580) (domain or fragment, UniProt A6NHR9 110-580)
chain: ATKERIDFLPHYDTLVKSGMYEYYASEGQNPLPFALAELIDNSLSATSRNIGVRRIQIKLLFDETQGKPAVAVIDNGRGMTSKQLNNWAVYRLSKFTRQGDFESDHSGYVRPVPVPRSLNSDISYFGVGGKQAVFFVGQSARMISKPADSQDVHELVLSKEDFEKKEKNKEAIYSGYIRNRKPSDSVHITNDDERFLHHLIIEEKEKDSFTAVVITGVQPEHIQYLKNYFHLWTRQLAHIYHYYIHGPKGNEIRTSKEVEPFNNIDIEISMFEKGKVPKIVNLREIQDDMQTLYVNTAADSFEFKAHVEGDGVVEGIIRYHPFLYDRETYPDDPCFPSKLKDEDDEDDCFILEKAARGKRPIFECFWNGRLIPYTSVEDFDWCTPPKKRGLAPIECYNRISGALFTNDKFQVSTNKLTFMDLELKLKDKNTLFTRILNGQEQRMKIDREFALWLKDCHEKYDKQIKFTLFK
SMCHD1(110–580) (human) [2]
  binding: no binding (tested: 5 mg/ml loaded)
SMCHD1(110–580) (human) [3]
  binding: no binding (tested: 2 mg/mL, diluted 6.25-fold)

B3: SMCHD1(24–406) (domain or fragment, UniProt A6NHR9 24-406)
chain: GHRTVYLFDRREKESELGDRPLQVGERSDYAGFRACVCQTLGISPEEKFVITTTSRKEITCDNFDETVKDGVTLYLLQSVNQLLLTATKERIDFLPHYDTLVKSGMYEYYASEGQNPLPFALAELIDNSLSATSRNIGVRRIQIKLLFDETQGKPAVAVIDNGRGMTSKQLNNWAVYRLSKFTRQGDFESDHSGYVRPVPVPRSLNSDISYFGVGGKQAVFFVGQSARMISKPADSQDVHELVLSKEDFEKKEKNKEAIYSGYIRNRKPSDSVHITNDDERFLHHLIIEEKEKDSFTAVVITGVQPEHIQYLKNYFHLWTRQLAHIYHYYIHGPKGNEIRTSKEVEPFNNIDIEISMFEKGKVPKIVNLREIQDDMQTLYVNT
SMCHD1(24–406) (human) [4]
  binding: no binding (tested: 5 mg/ml loaded)
SMCHD1(24–406) (human) [5]
  binding: no binding (tested: 2 mg/mL, diluted 6.25-fold)
